Data as given in PubChem BioAssay AID1259425 (University of Nebraska Medical Center, 2018).
This is an unselected part of about 14,000 reagents. No sequences are given here. Not given: the time to read-out.

Aim: 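Compare each knockdown with KSR1 silencing using changes in marker transcripts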 (primary screen)
System: HCT116 human colon cancer cells
Reagent: siRNA pool against human genes, 50 nM siRNA
Measurement: 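mRNA of six signature genes measured together by branched-DNA assay after 50 nM siRNA pool, blank removed, divided by geometric mean of two housekeeping genes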
Direction: BNIP3L mRNA: higher = more BNIP3L transcript after knockdown; NDRG1 mRNA: higher = more NDRG1 transcript after knockdown; BNIP3 mRNA: higher = more BNIP3 transcript after knockdown; ALDOC mRNA: higher = more ALDOC transcript after knockdown; ACSL5 mRNA: higher = more ACSL5 transcript after knockdown

target gene	BNIP3L mRNA, set 1	NDRG1 mRNA, set 1	BNIP3 mRNA, set 1	ALDOC mRNA, set 1	ACSL5 mRNA, set 1
HBB (GeneID 3043)	0.178	0.388	0.324	0.0465	0.223
EYA1 (GeneID 2138)	0.0628	0.183	0.214	0.0164	0.161
ASS1 (GeneID 445)	0.11	0.14	0.235	0.0259	0.213
OCM2 (GeneID 4951)	0.206	0.17	0.432	0.088	0.248
AKR1E2 (GeneID 83592)	0.0731	0.0679	0.286	0.0144	0.148
IFNA4 (GeneID 3441)	0.123	0.397	0.267	0.0183	0.219
PRPF4 (GeneID 9128)	0.0802	0.15	0.224	0.0167	0.197
PCSK6 (GeneID 5046)	0.1	0.224	0.278	0.0465	0.156
LILRB4 (GeneID 11006)	0.0599	0.154	0.182	0.0122	0.109
CHMP4A (GeneID 29082)	0.0553	0.114	0.249	0.0208	0.0752
SEC23A (GeneID 10484)	0.0265	0.251	0.262	0.0214	0.122
XPO6 (GeneID 23214)	0.0997	0.263	0.258	0.03	0.183
PLA2G2A (GeneID 5320)	0.118	0.15	0.219	0.0385	0.137
RPH3A (GeneID 22895)	0.154	0.516	0.178	0.0366	0.0866
KCNQ1 (GeneID 3784)	0.1	0.268	0.347	0.0157	0.136
CLEC3A (GeneID 10143)	0.0639	0.0972	0.239	0.028	0.108
TIA1 (GeneID 7072)	0.0999	1.09	0.169	0.0068	0.252
CD82 (GeneID 3732)	0.0815	0.424	0.235	0.0168	0.123
FAF1 (GeneID 11124)	0.06	0.204	0.278	0.0324	0.0674
STAG3 (GeneID 10734)	0.096	0.17	0.283	0.014	0.0888
NUP214 (GeneID 8021)	0.264	0.212	0.313	0.0438	0.267
F8 (GeneID 2157)	0.117	0.0446	0.434	0.00739	0.427
UBE2D2 (GeneID 7322)	0.0978	0.102	0.286	0.0184	0.275
ANGPTL2 (GeneID 23452)	0.136	0.252	0.339	0.0222	0.214
ME2 (GeneID 4200)	0.125	0.128	0.317	0.0354	0.112
MSANTD4 (GeneID 84437)	0.0688	0.229	0.166	0.0216	0.278
CALCB (GeneID 797)	0.13	0.194	0.355	0.0136	0.119
PGLYRP1 (GeneID 8993)	0.101	0.177	0.265	0.0461	0.12
FXYD7 (GeneID 53822)	0.0945	0.498	0.112	0.0136	0.0829
AMELY (GeneID 266)	0.0855	0.135	0.208	0.0301	0.0672
KIF11 (GeneID 3832)	0.0613	0.106	0.115	0.0491	0.224
GJD2 (GeneID 57369)	0.108	0.152	0.413	0.0126	0.294
PCDH12 (GeneID 51294)	0.0736	0.156	0.113	0.0131	0.138
CASQ1 (GeneID 844)	0.188	0.44	0.502	0.0172	0.315
TRIM49 (GeneID 57093)	0.18	0.215	0.293	0.134	0.568
CAP1 (GeneID 10487)	0.249	0.277	0.47	0.0714	0.161
ATP5F1E (GeneID 514)	0.0787	0.0755	0.153	0.0149	0.0615
RAB11FIP1 (GeneID 80223)	0.0839	0.0659	0.238	0.0137	0.0973
LRP2 (GeneID 4036)	0.135	0.271	0.208	0.0443	0.162

Quoted from above for reference:
target gene	BNIP3L mRNA, set 1	NDRG1 mRNA, set 1	BNIP3 mRNA, set 1	ALDOC mRNA, set 1	ACSL5 mRNA, set 1
UBE2D2 (GeneID 7322)	0.0978	0.102	0.286	0.0184	0.275
ANGPTL2 (GeneID 23452)	0.136	0.252	0.339	0.0222	0.214
ME2 (GeneID 4200)	0.125	0.128	0.317	0.0354	0.112
MSANTD4 (GeneID 84437)	0.0688	0.229	0.166	0.0216	0.278

The listing continues:
target gene	BNIP3L mRNA, set 1	NDRG1 mRNA, set 1	BNIP3 mRNA, set 1	ALDOC mRNA, set 1	ACSL5 mRNA, set 1
MTMR7 (GeneID 9108)	0.0277	0.0978	0.273	0.0376	0.0828
WHR1 (GeneID 8859)	0.104	0.172	0.292	0.00673	0.362
BORA (GeneID 79866)	0.264	0.321	0.5	0.0636	0.352
CEACAM8 (GeneID 1088)	0.046	0.123	0.326	0.0365	0.164
LPO (GeneID 4025)	0.194	0.089	0.235	0.0142	0.159
VPS37C (GeneID 55048)	0.195	0.216	0.324	0.0108	0.151
TYMP (GeneID 1890)	0.0605	0.119	0.206	0.0256	0.0637
H4C9 (GeneID 8294)	0.286	0.306	0.433	0.0426	0.2
PDIK1L (GeneID 149420)	0.149	0.169	0.376	0.0227	0.173
DAPK1 (GeneID 1612)	0.179	0.0842	0.425	0.0118	0.547
HLA-DRB5 (GeneID 3127)	0.0684	0.143	0.321	0.0131	0.214
PAK4 (GeneID 10298)	0.0841	0.148	0.339	0.0285	0.252
EDEM3 (GeneID 80267)	0.0513	0.0594	0.22	0.0161	0.0684
SLC24A2 (GeneID 25769)	0.168	0.275	0.366	0.0256	0.347
SLX4 (GeneID 84464)	0.0706	0.863	0.181	0.0308	0.245
MMP7 (GeneID 4316)	0.158	0.12	0.451	0.0206	0.103
FAM216A (GeneID 29902)	0.104	0.14	0.318	0.0384	0.061
ECI2 (GeneID 10455)	0.15	0.336	0.313	0.0431	0.256
NPTXR (GeneID 23467)	0.104	0.117	0.214	0.0177	0.347
DRG1 (GeneID 4733)	0.0958	0.0579	0.312	0.0201	0.112
RPS8 (GeneID 6202)	0.0885	0.0544	0.567	0.00618	0.111
LYNX1 (GeneID 66004)	0.159	0.619	0.335	0.0477	0.359
CFP (GeneID 5199)	0.0663	0.0994	0.224	0.0244	0.154
MMP16 (GeneID 4325)	0.0664	0.108	0.236	0.0279	0.0983
